Source: patent US10653693B2, “PRMT5 inhibitors and uses thereof” (Epizyme, Inc., priority 2014, dated 2020)
Some entries share one result that the patent states for a list of compounds.

What was measured:
Z-138 xenograft model = experiment: 21 day mantle cell lymphoma xenograft study: TGI and tumor methyl mark; assay type: in vivo; details: tumors that had >50% TGI, day 21
Protocol: Data presented in this example were determined after analysis of 21 day samples of mantle cell lymphoma tumors. Cmin PK samples were taken prior to the last dose on day 21. Tumors were excised, weighed and processed for methyl mark. Methyl mark reduction was measured in tumor samples and is shown as percent of vehicle control (POC). […] Tumor growth inhibition was determined using tumor volume reduction at day 21 expressed as a percent of POC. In vivo inhibition curves were also generated and IC50 values determined. Plasma levels from each group are averaged from 5 animals. […] The average body weight loss (BWL) in all groups was <6%. All doses tested show >50% TGI. […] The average BWL in all groups was <4%. The average BWL in all groups was <8%, except in the 100 mg/kg does group were 4 animals exceeded BWL of 15%.

Maver-1 xenograft model = experiment: as above; assay type: in vivo; details: day 21
Protocol: Data presented in this example were determined after analysis of 21 day samples of mantle cell lymphoma tumors. Cmin PK samples were taken prior to the last dose on day 21. Tumors were excised, weighed and processed for methyl mark. Methyl mark reduction was measured in tumor samples and is shown as percent of vehicle control (POC). Both SYM11 and sDMA Elisa were used to measure methyl mark and the data shown is averaged from 10 animals. Tumor growth inhibition was determined using tumor volume reduction at day 21 expressed as a percent of POC. In vivo inhibition curves were also generated and IC50 values determined. Plasma levels from each group are averaged from 5 animals. […] The average body weight loss (BWL) in all groups was <6%. All doses tested show >50% TGI. […] The average BWL in all groups was <4%. The average BWL in all groups was <8%, except in the 100 mg/kg does group were 4 animals exceeded BWL of 15%.

Structure (SMILES)	methyl mark reduction in tumors (Z-138 xenograft model)	methyl mark reduction in tumors (Maver-1 xenograft model)
CC(=O)N1CCC(Nc2cc(C(=O)NC[C@H](O)CN3CCc4ccccc4C3)ncn2)CC1 [Formula A]	> 80%	> 80%
CC(=O)N1CCC(Nc2cc(C(=O)NC[C@H](O)CN3CCc4ccccc4C3)ccn2)CC1 [Formula B]	> 80%	> 80%
